Data on one substance can be found in doi:10.1101/530642.

Protein sequences, listed by entry. Tags and fused reporters are not part of them. Lines headed by an entry give the natural chain unless they say otherwise; changes in a name come on top. Residues count along the entry.
UniProt Q27J81, whole entry: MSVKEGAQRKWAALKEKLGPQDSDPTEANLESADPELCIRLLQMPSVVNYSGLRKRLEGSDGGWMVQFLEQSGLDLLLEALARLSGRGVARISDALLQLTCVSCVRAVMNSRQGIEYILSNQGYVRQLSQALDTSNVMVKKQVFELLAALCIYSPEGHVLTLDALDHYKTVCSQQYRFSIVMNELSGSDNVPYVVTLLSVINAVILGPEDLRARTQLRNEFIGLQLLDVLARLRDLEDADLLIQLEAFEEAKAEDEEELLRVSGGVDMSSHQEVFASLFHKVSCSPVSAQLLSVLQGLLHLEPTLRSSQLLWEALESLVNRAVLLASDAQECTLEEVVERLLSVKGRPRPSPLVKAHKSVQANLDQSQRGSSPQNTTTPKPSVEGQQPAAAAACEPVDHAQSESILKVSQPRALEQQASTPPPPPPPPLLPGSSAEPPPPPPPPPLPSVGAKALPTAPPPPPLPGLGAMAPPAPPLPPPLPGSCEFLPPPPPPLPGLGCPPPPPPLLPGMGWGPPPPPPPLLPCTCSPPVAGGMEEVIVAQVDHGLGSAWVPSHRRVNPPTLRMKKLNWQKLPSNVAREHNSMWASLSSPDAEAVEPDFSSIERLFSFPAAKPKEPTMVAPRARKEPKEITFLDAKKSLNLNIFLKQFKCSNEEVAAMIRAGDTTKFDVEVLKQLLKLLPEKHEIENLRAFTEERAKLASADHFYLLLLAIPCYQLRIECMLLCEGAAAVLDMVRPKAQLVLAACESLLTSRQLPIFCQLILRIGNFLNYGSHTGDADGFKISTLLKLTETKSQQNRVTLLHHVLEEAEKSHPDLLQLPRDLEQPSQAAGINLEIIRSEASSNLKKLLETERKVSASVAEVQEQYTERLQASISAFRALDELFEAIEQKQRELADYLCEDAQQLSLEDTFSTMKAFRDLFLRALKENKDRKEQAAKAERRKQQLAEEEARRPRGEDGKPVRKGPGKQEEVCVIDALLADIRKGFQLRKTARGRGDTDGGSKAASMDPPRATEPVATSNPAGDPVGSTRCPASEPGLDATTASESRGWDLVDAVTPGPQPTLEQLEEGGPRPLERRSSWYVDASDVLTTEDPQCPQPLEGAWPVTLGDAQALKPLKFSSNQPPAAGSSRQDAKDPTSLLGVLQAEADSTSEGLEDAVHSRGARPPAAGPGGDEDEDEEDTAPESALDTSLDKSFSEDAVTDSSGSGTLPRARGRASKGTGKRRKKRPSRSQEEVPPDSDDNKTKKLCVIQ
UniProt Q27J81, 1-547: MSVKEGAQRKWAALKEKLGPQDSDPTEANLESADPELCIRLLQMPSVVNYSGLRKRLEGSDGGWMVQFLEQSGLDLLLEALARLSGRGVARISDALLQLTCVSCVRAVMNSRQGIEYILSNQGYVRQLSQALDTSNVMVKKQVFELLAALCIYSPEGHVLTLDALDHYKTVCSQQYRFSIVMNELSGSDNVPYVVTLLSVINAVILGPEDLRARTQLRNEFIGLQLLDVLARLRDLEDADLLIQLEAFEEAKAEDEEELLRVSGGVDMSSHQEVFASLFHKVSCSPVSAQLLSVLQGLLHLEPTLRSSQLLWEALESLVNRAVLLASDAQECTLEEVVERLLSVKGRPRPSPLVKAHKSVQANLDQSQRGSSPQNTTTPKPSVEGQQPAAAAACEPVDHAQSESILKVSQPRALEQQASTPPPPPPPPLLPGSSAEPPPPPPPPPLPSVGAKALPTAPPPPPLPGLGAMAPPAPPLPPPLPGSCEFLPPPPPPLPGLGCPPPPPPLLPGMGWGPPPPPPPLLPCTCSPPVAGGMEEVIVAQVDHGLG
UniProt O60610, whole entry: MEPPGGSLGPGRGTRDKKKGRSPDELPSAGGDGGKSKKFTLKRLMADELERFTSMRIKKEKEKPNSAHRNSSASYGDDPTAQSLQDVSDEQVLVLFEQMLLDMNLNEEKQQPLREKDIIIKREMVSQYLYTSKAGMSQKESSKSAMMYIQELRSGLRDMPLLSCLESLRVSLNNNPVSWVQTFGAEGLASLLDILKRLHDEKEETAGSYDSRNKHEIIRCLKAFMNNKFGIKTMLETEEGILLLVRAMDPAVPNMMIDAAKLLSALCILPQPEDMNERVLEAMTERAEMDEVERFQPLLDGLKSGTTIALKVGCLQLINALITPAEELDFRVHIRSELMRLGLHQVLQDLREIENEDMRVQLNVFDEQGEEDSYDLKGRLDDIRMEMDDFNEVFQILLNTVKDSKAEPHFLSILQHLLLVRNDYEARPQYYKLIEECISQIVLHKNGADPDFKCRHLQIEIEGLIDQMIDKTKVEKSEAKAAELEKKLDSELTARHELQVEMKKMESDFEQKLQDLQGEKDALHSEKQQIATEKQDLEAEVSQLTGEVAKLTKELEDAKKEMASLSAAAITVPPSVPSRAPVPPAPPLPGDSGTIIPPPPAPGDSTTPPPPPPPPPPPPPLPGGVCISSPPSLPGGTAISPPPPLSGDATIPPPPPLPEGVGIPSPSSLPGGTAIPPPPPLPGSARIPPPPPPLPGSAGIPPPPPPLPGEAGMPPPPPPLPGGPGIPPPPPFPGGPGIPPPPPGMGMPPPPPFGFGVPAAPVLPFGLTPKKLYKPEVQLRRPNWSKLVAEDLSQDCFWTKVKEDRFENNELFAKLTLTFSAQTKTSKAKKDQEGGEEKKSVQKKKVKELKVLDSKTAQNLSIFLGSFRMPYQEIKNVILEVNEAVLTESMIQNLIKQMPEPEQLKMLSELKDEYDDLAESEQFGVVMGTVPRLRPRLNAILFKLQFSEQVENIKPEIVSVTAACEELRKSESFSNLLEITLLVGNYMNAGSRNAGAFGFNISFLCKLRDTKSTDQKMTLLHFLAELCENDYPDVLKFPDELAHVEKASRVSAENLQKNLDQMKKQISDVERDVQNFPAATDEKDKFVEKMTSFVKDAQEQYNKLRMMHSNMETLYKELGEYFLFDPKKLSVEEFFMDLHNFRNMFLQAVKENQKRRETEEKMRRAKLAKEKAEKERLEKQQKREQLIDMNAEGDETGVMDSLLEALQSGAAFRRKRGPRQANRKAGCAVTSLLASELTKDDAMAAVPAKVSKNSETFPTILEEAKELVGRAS

No constants are given. Whether binding was seen depends on the method and setting. Binding seen in cells or lysates may run through a third protein. Some entries that bind do so weakly or less than the wild type.

Experiment in all cases: co-IP
Experiment [1] has as its target GFP-tagged INF2 N-fragment (wild-type), amino acids 1-547 of the human INF2-CAAX isoform (human) (UniProt Q27J81).
For experiment [2], the target named is GFP-tagged INF2 N-fragment R218Q, amino acids 1-547 of the human INF2-CAAX isoform (human) (UniProt Q27J81).
Experiment [3] has as its target GFP-tagged full-length INF2-CAAX (wild-type), amino acids 1-1249 (human) (UniProt Q27J81).
The target in experiment [4] is GFP-tagged full-length INF2-CAAX R218Q, amino acids 1-1249 (human) (UniProt Q27J81).
In experiment [5] the target is non-cleavable GFP-tagged full-length INF2-CAAX (Δ543-548) (human) (UniProt Q27J81).
Experiment [6] deals with non-cleavable GFP-tagged full-length INF2-CAAX R218Q (Δ543-548) (human) (UniProt Q27J81).

As for “mDIA1 (DIAPH1) (from UniProt O60610 1-1272)”, the binding entry was “binds” in experiment [1]; “binds” in experiment [2]; “binds” in experiment [3]; “binds” in experiment [4]; “no binding” in experiment [5]; “no binding” in experiment [6].
